Assay results as given in paper PMC12487672.
Results are given in words; binding and its absence hold for the method and conditions named. Binding seen in cells or lysates may run through a third protein. Some results given as binding are weak or reduced against the parent protein; the word gives no strength. Where a sequence is shown, tags or fusion partners need not be part of it.

Molecular target: T1, SPRY1 (Sprouty RTK signaling antagonist 1), mouse, 3×FLAG-tagged (mouse) (UniProt Q9QXV9)
T1 sequence: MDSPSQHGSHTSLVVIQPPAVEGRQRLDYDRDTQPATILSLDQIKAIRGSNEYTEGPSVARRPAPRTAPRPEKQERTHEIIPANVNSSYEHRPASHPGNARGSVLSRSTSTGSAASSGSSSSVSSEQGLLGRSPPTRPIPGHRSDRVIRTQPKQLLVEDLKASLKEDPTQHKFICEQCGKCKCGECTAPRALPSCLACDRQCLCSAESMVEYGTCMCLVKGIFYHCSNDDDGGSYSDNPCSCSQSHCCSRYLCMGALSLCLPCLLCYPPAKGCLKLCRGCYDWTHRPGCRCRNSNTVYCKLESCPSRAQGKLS
Experiment: co-IP; mouse keratinocytes transfected with FLAG-spry1, HA-dgat2 or both, 72 h; RIPA lysis buffer with protease and phosphatase inhibitors; anti-FLAG antibody-conjugated magnetic beads, 4°C, 4 h; western blot

binding: binds
B1: DGAT2 (diacylglycerol acyltransferase 2), mouse, 3×HA-tagged (enzyme, UniProt Q9DCV3 1-388)
chain: MKTLIAAYSGVLRGERRAEAARSENKNKGSALSREGSGRWGTGSSILSALQDIFSVTWLNRSKVEKQLQVISVLQWVLSFLVLGVACSVILMYTFCTDCWLIAVLYFTWLAFDWNTPKKGGRRSQWVRNWAVWRYFRDYFPIQLVKTHNLLTTRNYIFGYHPHGIMGLGAFCNFSTEATEVSKKFPGIRPYLATLAGNFRMPVLREYLMSGGICPVNRDTIDYLLSKNGSGNAIIIVVGGAAESLSSMPGKNAVTLKNRKGFVKLALRHGADLVPTYSFGENEVYKQVIFEEGSWGRWVQKKFQKYIGFAPCIFHGRGLFSSDTWGLVPYSKPITTVVGEPITVPKLEHPTQKDIDLYHAMYMEALVKLFDNHKTKFGLPETEVLEVN
